± gives the standard deviation of the averaged measurements. These are raw signals, not scaled to a control.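 Maximum concentrations were near the MIC for antimicrobials, 500 µM for most other compounds, and as high as 1 mM for known inducer-like compounds. Deletion strains began with a tenfold smaller inoculum, and wells with growth under 10% of the overall median counted as non-growing.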
Test system: Escherichia coli BW25113
Test: growth (OD600 area under curve, 8 h) (OD600 x h); higher = more growth
Procedure: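 E. coli BW25113 reporter strains (wild type, ΔmarA, ΔsoxS, Δrob, each carrying one of 8 lux reporter plasmids) were grown in 40 µl LB in 384-well plates at 37°C, 800 rpm, with each compound at 4 two-fold concentrations, in biological duplicates. Growth is the baseline-corrected OD600 area under the curve over 8 h (0-8 h WT, 1-9 h deletion strains).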

CN(C)C(=N)NC(=N)N [Metformin]
growth
Conditions	reporter plasmid: EVC	reporter plasmid: acrABp	reporter plasmid: marRABp	reporter plasmid: micFp	reporter plasmid: ompFp	reporter plasmid: robp	reporter plasmid: soxSp	reporter plasmid: tolCp
20.7 µg/ml, genetic background: wild type	3.15 ± 0.081	3.43 ± 0.25	3.49 ± 0.13	3.22 ± 0.32	3.44 ± 0.18	3.48 ± 0.064	3.119 ± 0.012	3.35 ± 0.069
20.7 µg/ml, genetic background: ΔmarA	3.46 ± 0.56	4.4 ± 0.37	3.78 ± 0.17	3.22 ± 0.96	3.58 ± 0.66	4.2 ± 0.48	2.99 ± 0.57	3.19 ± 0.15
20.7 µg/ml, genetic background: Δrob	3.05 ± 0.27	3.31 ± 0.32	3.58 ± 0.37	3.22 ± 0.29	2.78 ± 0.36	2.82 ± 0.26	3.03 ± 0.55	3.19 ± 0.12
20.7 µg/ml, genetic background: ΔsoxS	3.256 ± 0.0065	3.22 ± 0.49	3.49 ± 0.6	2.83 ± 0.21	3.37 ± 0.16	3.63 ± 0.14	3.02 ± 0.41	3.36 ± 0.25
41.4 µg/ml, genetic background: wild type	3.16 ± 0.072	3.33 ± 0.34	3.375 ± 0.02	3.28 ± 0.3	3.34 ± 0.11	3.42 ± 0.17	3.1 ± 0.09	3.26 ± 0.0058
41.4 µg/ml, genetic background: ΔmarA	3.4 ± 0.33	4.41 ± 0.61	3.96 ± 0.31	3.22 ± 0.7	3.68 ± 0.73	4.17 ± 0.24	2.94 ± 0.53	3.05 ± 0.076
41.4 µg/ml, genetic background: Δrob	2.9 ± 0.3	3.0548 ± 0.0011	3.48 ± 0.61	3.2 ± 0.32	2.69 ± 0.54	2.8 ± 0.42	3.02 ± 0.29	3.21 ± 0.2
41.4 µg/ml, genetic background: ΔsoxS	3.288 ± 0.013	3.3 ± 0.15	3.37 ± 0.92	3.05 ± 0.26	3.25 ± 0.2	3.35 ± 0.49	3.2 ± 0.37	3.19 ± 0.29
82.8 µg/ml, genetic background: wild type	3.07 ± 0.14	3.22 ± 0.49	3.302 ± 0.0059	3.2 ± 0.14	3.45 ± 0.16	3.45 ± 0.12	3.128 ± 0.0038	3.24 ± 0.043
82.8 µg/ml, genetic background: ΔmarA	3.61 ± 0.67	4.3 ± 0.77	3.83 ± 0.47	3.45 ± 0.57	3.77 ± 0.54	4.22 ± 0.23	3.13 ± 0.15	3.32 ± 0.11
82.8 µg/ml, genetic background: Δrob	3.09 ± 0.39	2.92 ± 0.042	3.5 ± 0.2	3.17 ± 0.14	2.97 ± 0.4	2.877 ± 0.011	3.09 ± 0.2	3.1145 ± 0.00091
82.8 µg/ml, genetic background: ΔsoxS	3.38 ± 0.11	3.55 ± 0.47	3.6 ± 0.68	3.07 ± 0.077	3.36 ± 0.22	3.51 ± 0.19	3.48 ± 0.29	3.37 ± 0.13
165.6 µg/ml, genetic background: wild type	3.07 ± 0.098	3.165 ± 0.028	3.35 ± 0.073	3 ± 0.078	3.31 ± 0.063	3.5 ± 0.15	3.17 ± 0.04	3.16 ± 0.12
165.6 µg/ml, genetic background: ΔmarA	3.46 ± 0.66	4.05 ± 0.64	3.8 ± 0.46	3.3 ± 0.48	3.57 ± 0.42	4.03 ± 0.18	3.04 ± 0.56	3.14 ± 0.033
165.6 µg/ml, genetic background: Δrob	2.99 ± 0.52	2.67 ± 0.12	3.27 ± 0.4	3.04 ± 0.14	2.82 ± 0.41	2.61 ± 0.028	2.83 ± 0.36	3.18 ± 0.069
165.6 µg/ml, genetic background: ΔsoxS	3.25 ± 0.14	3.06 ± 0.35	3.26 ± 0.85	2.66 ± 0.32	3.09 ± 0.29	3.17 ± 0.22	3.27 ± 0.19	3.45 ± 0.26

Cc1ncc([N+](=O)[O-])n1CCO [Metronidazole]
growth
Conditions	reporter plasmid: EVC	reporter plasmid: acrABp	reporter plasmid: marRABp	reporter plasmid: micFp	reporter plasmid: ompFp	reporter plasmid: robp	reporter plasmid: soxSp	reporter plasmid: tolCp
0.11 µg/ml, genetic background: wild type	3.2 ± 0.05	3.33 ± 0.31	3.3 ± 0.048	3.28 ± 0.11	3.4 ± 0.21	3.5 ± 0.081	3.191 ± 0.02	3.304 ± 0.033
0.11 µg/ml, genetic background: ΔmarA	3.7 ± 0.61	4.58 ± 0.73	4.01 ± 0.39	3.61 ± 0.51	3.88 ± 0.48	4.34 ± 0.22	3.39 ± 0.48	3.33 ± 0.25
0.11 µg/ml, genetic background: Δrob	3.08 ± 0.31	3.23 ± 0.21	3.59 ± 0.62	3.39 ± 0.36	2.97 ± 0.43	2.85 ± 0.25	3.11 ± 0.14	3.38 ± 0.23
0.11 µg/ml, genetic background: ΔsoxS	3.42 ± 0.22	3.5 ± 0.35	3.51 ± 0.61	3.14 ± 0.04	3.3 ± 0.27	3.47 ± 0.11	3.287 ± 0.032	3.27 ± 0.064
0.21 µg/ml, genetic background: wild type	3.18 ± 0.05	3.4 ± 0.25	3.21 ± 0.11	3.2 ± 0.16	3.41 ± 0.17	3.44 ± 0.053	3 ± 0.18	3.25 ± 0.05
0.21 µg/ml, genetic background: ΔmarA	3.45 ± 0.53	4.34 ± 0.56	3.94 ± 0.27	3.43 ± 0.55	3.52 ± 0.6	4.26 ± 0.22	3.15 ± 0.38	3.3 ± 0.27
0.21 µg/ml, genetic background: Δrob	2.96 ± 0.35	3.14 ± 0.15	3.61 ± 0.49	3.25 ± 0.18	2.62 ± 0.55	2.9 ± 0.25	3.03 ± 0.41	3.22 ± 0.32
0.21 µg/ml, genetic background: ΔsoxS	3.22 ± 0.1	3.47 ± 0.37	3.28 ± 0.66	2.88 ± 0.21	3.19 ± 0.24	3.2 ± 0.29	3.27 ± 0.3	3.17 ± 0.27
0.43 µg/ml, genetic background: wild type	3.125 ± 0.013	3.41 ± 0.42	3.36 ± 0.093	3.18 ± 0.17	3.33 ± 0.1	3.47 ± 0.064	2.99 ± 0.23	3.207 ± 0.03
0.43 µg/ml, genetic background: ΔmarA	3.57 ± 0.5	4.4 ± 0.87	3.79 ± 0.39	3.59 ± 0.46	3.78 ± 0.39	4.19 ± 0.23	3.39 ± 0.25	3.36 ± 0.19
0.43 µg/ml, genetic background: Δrob	3.1 ± 0.13	3.28 ± 0.19	3.45 ± 0.23	3.33 ± 0.22	3.09 ± 0.47	2.77 ± 0.03	3.03 ± 0.22	3.29 ± 0.14
0.43 µg/ml, genetic background: ΔsoxS	3.43 ± 0.12	3.49 ± 0.35	3.5 ± 0.62	3.15 ± 0.038	3.24 ± 0.27	3.5 ± 0.19	3.37 ± 0.35	3.45 ± 0.037
0.86 µg/ml, genetic background: wild type	2.92 ± 0.072	3.24 ± 0.3	3.23 ± 0.1	3.01 ± 0.17	3.18 ± 0.17	3.3 ± 0.11	2.919 ± 0.018	3.151 ± 0.018
0.86 µg/ml, genetic background: ΔmarA	3.45 ± 0.6	4.11 ± 0.65	3.63 ± 0.28	3.46 ± 0.39	3.61 ± 0.47	4.11 ± 0.22	3.24 ± 0.27	3.084 ± 0.02
0.86 µg/ml, genetic background: Δrob	3.02 ± 0.17	2.83 ± 0.048	3.24 ± 0.44	3.12 ± 0.25	2.79 ± 0.24	2.6 ± 0.052	2.98 ± 0.17	3.19 ± 0.14
0.86 µg/ml, genetic background: ΔsoxS	3.33 ± 0.15	3.21 ± 0.14	3.18 ± 0.56	2.83 ± 0.042	3.1 ± 0.39	3.03 ± 0.35	3 ± 0.34	3.344 ± 0.0095

— the supplement of paper PMC12282887
